No constants are given. Whether binding was seen depends on the method and setting. Binding seen in cells or lysates may run through a third protein. Some results given as binding are weak or reduced against the parent protein; the word gives no strength. For some assays here: Sequences can lack the tags named with a protein.
How the values were obtained:
[1] = target: T1, Sufu expressed from the Sufu (NM_016169) plasmid (human) (UniProt Q9UMX1); assay: co-IP; U87 cells lysed in RIPA buffer; 1 ug anti-Sufu (or anti-Gli1) antibody or control rabbit IgG with protein-A/G PLUS-Agarose beads at 4°C overnight, washed 3 times with RIPA, immunoblot for Gli1 (or Sufu); cells also transfected with Sufu plasmid or Sufu siRNA
T1 sequence: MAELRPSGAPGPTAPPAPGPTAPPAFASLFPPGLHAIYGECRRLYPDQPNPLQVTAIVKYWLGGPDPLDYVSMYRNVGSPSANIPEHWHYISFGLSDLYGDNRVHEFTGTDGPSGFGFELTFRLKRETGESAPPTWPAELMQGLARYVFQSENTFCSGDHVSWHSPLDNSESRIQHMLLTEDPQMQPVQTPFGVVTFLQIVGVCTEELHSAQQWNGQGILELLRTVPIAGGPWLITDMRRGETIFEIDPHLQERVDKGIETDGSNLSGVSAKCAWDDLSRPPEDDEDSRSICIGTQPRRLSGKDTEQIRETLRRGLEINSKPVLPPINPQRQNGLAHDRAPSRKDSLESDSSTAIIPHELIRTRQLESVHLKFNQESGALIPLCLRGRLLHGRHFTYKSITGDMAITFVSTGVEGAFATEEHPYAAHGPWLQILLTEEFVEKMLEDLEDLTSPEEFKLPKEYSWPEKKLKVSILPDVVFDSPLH

Amino acid sequences for entries named in this document (tags omitted).
UniProt P08151: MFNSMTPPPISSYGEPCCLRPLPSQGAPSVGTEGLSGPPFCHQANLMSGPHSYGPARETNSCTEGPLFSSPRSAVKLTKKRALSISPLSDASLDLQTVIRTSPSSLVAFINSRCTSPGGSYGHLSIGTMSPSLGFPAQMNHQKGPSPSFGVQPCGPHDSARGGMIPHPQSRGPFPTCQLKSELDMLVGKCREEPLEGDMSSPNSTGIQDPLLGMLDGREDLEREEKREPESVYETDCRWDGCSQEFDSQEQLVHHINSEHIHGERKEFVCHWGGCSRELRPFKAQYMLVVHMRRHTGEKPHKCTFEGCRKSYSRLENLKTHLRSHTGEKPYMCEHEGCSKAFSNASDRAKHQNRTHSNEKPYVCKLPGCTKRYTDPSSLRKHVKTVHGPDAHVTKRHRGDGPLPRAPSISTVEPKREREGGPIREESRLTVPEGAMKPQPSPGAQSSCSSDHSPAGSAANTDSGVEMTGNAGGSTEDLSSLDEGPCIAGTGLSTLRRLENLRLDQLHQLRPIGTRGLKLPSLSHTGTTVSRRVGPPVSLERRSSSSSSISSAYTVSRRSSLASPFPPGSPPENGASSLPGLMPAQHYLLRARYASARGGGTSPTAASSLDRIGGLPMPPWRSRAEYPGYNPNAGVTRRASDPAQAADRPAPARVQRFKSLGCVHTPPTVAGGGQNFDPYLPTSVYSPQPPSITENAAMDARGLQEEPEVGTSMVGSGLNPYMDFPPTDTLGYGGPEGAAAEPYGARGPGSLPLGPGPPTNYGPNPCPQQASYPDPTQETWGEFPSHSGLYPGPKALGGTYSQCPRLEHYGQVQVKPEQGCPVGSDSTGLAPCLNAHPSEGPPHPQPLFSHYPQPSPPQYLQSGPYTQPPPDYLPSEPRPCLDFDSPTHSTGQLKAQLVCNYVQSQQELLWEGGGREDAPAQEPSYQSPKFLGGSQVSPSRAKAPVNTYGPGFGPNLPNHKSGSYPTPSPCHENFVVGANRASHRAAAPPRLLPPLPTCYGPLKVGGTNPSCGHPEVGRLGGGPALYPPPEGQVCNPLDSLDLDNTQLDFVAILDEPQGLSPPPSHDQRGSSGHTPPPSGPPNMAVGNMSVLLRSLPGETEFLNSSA

[2] = target: T2, Suppressor of fused (Sufu) (human (endogenous in U87)) (UniProt Q9UMX1); assay: as above
T2 sequence: T1 sequence

glioma-associated oncogene homolog 1 (Gli1) (from UniProt P08151 1-1106)
binding [1]: binds
binding [2]: binds

Source: publication PMC4294353
